# Patent US20240174712A1, “COMPOSITIONS AND METHODS FOR PURIFYING ALPHA-1 ANTITRYPSIN USING PEPTIDE LIGANDS” (North Carolina State University, priority 2022, published 2024)
# Chains of the proteins cited; added tags and fusions are not shown. Residues count along the entry.
# UniProt P01009, residues 25-418: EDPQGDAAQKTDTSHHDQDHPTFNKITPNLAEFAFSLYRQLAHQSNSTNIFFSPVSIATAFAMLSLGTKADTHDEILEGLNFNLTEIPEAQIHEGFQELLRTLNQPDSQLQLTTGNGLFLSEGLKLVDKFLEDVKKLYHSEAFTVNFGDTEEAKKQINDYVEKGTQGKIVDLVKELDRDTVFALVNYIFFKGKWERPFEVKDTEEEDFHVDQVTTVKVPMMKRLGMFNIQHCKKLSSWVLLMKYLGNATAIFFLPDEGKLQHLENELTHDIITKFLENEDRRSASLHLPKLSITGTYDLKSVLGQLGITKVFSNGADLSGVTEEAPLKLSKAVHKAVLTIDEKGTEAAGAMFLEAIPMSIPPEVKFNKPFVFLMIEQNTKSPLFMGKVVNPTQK
# Results are given in words; binding and its absence hold for the method and conditions named. Some entries that bind do so weakly or less than the wild type.
# Biological target: AF594-labeled AAT (human) (UniProt P01009)
# Experiment: on-bead library screen; red-only fluorescent beads with AF594-AAT in AF488-CHO HCPs, Edman sequencing
row,Binder,binding
1,FHWNHWFHGSG (C-terminus on HMBA-ChemMatrix resin bead) [FHWNHWFH on GSG-ChemMatrix library bead],binds
2,KHAWIFGSG (C-terminus on HMBA-ChemMatrix resin bead) [KHAWIF on GSG-ChemMatrix library bead],binds
3,FKHNAISAGSG (C-terminus on HMBA-ChemMatrix resin bead) [FKHNAISA on GSG-ChemMatrix library bead],binds
4,ANAKIKKKGSG (C-terminus on HMBA-ChemMatrix resin bead) [ANAKIKKK on GSG-ChemMatrix library bead],binds
5,WHAKKSKFGSG (C-terminus on HMBA-ChemMatrix resin bead) [WHAKKSKF on GSG-ChemMatrix library bead],binds
6,SHWHWAGSG (C-terminus on HMBA-ChemMatrix resin bead) [SHWHWA on GSG-ChemMatrix library bead],binds
7,KFHAWNGSG (C-terminus on HMBA-ChemMatrix resin bead) [KFHAWN on GSG-ChemMatrix library bead],binds
8,AHIHFSEKGSG (C-terminus on HMBA-ChemMatrix resin bead) [AHIHFSEK on GSG-ChemMatrix library bead],binds
9,WNKKWKGSG (C-terminus on HMBA-ChemMatrix resin bead) [WNKKWK on GSG-ChemMatrix library bead],binds

# More lines, now with the values ahead:
row,binding,Binder
1,binds,ISSFEAAFGSG (C-terminus on HMBA-ChemMatrix resin bead) [ISSFEAAF on GSG-ChemMatrix library bead]
2,binds,EHSSWHSKGSG (C-terminus on HMBA-ChemMatrix resin bead) [EHSSWHSK on GSG-ChemMatrix library bead]
3,binds,FEKWAKAHGSG (C-terminus on HMBA-ChemMatrix resin bead) [FEKWAKAH on GSG-ChemMatrix library bead]
4,binds,AAHFHKGSG (C-terminus on HMBA-ChemMatrix resin bead) [AAHFHK on GSG-ChemMatrix library bead]
5,binds,NHSKKNIKGSG (C-terminus on HMBA-ChemMatrix resin bead) [NHSKKNIK on GSG-ChemMatrix library bead]
6,binds,WNHSIFFHGSG (C-terminus on HMBA-ChemMatrix resin bead) [WNHSIFFH on GSG-ChemMatrix library bead]
7,binds,KAWFKHWNGSG (C-terminus on HMBA-ChemMatrix resin bead) [KAWFKHWN on GSG-ChemMatrix library bead]
8,binds,NHNKIHGSG (C-terminus on HMBA-ChemMatrix resin bead) [NHNKIH on GSG-ChemMatrix library bead]
9,binds,FSHHSWKFGSG (C-terminus on HMBA-ChemMatrix resin bead) [FSHHSWKF on GSG-ChemMatrix library bead]
10,binds,WHAKKSHFGSG (C-terminus on HMBA-ChemMatrix resin bead) [WHAKKSHF on GSG-ChemMatrix library bead]
11,binds,KWKHSHKWGSG (C-terminus on HMBA-ChemMatrix resin bead) [KWKHSHKW on GSG-ChemMatrix library bead]
12,binds,KHSKAIAAGSG (C-terminus on HMBA-ChemMatrix resin bead) [KHSKAIAA on GSG-ChemMatrix library bead]
13,binds,IAKAKKWAGSG (C-terminus on HMBA-ChemMatrix resin bead) [IAKAKKWA on GSG-ChemMatrix library bead]
14,binds,KAKHKEGSG (C-terminus on HMBA-ChemMatrix resin bead) [KAKHKE on GSG-ChemMatrix library bead]
